For experiment [1], the target named is T1, Group B Streptococcus recombinant sortase A SrtA_(ΔN40) (Streptococcus agalactiae strain 515 (serotype Ia)) (UniProt Q8DZY1).
T1 sequence: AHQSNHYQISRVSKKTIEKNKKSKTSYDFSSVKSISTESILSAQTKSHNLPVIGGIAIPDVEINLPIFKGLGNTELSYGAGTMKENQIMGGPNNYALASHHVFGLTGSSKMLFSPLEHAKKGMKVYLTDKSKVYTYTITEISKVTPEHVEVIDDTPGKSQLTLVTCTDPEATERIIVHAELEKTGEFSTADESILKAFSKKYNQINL
The experiment in a line: NMR transverse relaxation time (T2); T2 of SrtA_(ΔN40) as indicator of the overall tumbling rate and size; conditions of this measurement not told; both purified.

For experiment [2], the target named is T1, Group B Streptococcus recombinant sortase A SrtA_(ΔN40) (Streptococcus agalactiae strain 515 (serotype Ia)). In words: SEC-MALS; Superdex 200 PC 3.2/30, eluted isocratically in PBS at 0.1 ml/min; MALS detector on-line, UV at 280 nm; both purified. Background: SEC sorts molecules by how far they enter the pores of the column.

Results are given in words; binding and its absence hold for the method and conditions named.

B1: Group B Streptococcus recombinant sortase A SrtA_(ΔN40) (enzyme, UniProt Q8DZY1 41-247)
chain: T1 sequence
Consider B1, for which the binding entry in experiment [1] and in experiment [2] was “no binding” each time.

Values taken from article PMC3186789.
